For at least one compound, name, drawing or mass did not settle the structure.
Tested on: TUBO tumors
Assay: Monotherapies in HER2+ BC murine model (FIG. 8)
Type: in vivo, Balb/C mice
Conditions: monotherapy
Description: Balb/C mice or C57BL/6 mice received tumor cells on day 0 followed by different treatments; two doses of Taxol given intraperitoneally (i.p.) once a week; CDK inhibitor, abemaciclib was administered by oral gavage till end point; Anti-PD-L1 was given i.p. twice a week until end point; DC1 vaccine was given intratumorally.

CCN1CCN(Cc2ccc(Nc3ncc(F)c(-c4cc(F)c5nc(C)n(C(C)C)c5c4)n3)nc2)CC1 [abemaciclib]
tumor growth: modestly delayed tumor growth

Source: US20230390345A1, “COMBINATION THERAPY COMPRISING HER-2-DC1 VACCINE, A PROBIOTIC, AND SEMAPHORIN” (H. LEE MOFFITT CANCER CENTER AND RESEARCH INSTITUTE, INC., priority 2020, published 2023)
